Values from PubChem BioAssay AID1159584 (Peter MacCallum Cancer Centre, 2016)
Here is an unselected part of about 18,000 deposited reagents. The record does not give: the amount of reagent, the time to read-out.

- Screen: 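Knock-downs that harm CDH1-null cells more than parental MCF10A cells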 (primary screen)
- Cells: human MCF10A breast epithelial cells, parental and CDH1-null
- Knock-down reagent: siRNA against human genes
- Measurement: 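Cell viability by CellTiter-Glo ATP luminescence, each line scaled to the mean of mock wells across plates, then CDH1-null over parental ratio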
- Reading the numbers: CDH1-null / parental viability ratio: higher = CDH1-null cells survive relatively better than parental; CDH1-null viability vs mock: higher = more viable CDH1-null cells; parental viability vs mock: higher = more viable parental cells

| gene knocked down | CDH1-null / parental viability ratio | CDH1-null viability vs mock (fraction of mock) | parental viability vs mock (fraction of mock) |
| --- | --- | --- | --- |
| SPACA4 | 1.2 | 1.06 | 0.88 |
| DPH6 | 1.23 | 0.91 | 0.74 |
| PKIG | 1.05 | 0.86 | 0.82 |
| PTPRE | 1.37 | 0.74 | 0.54 |
| TMEM41B | 0.7 | 0.57 | 0.82 |
| ZNF507 | 1 | 0.78 | 0.78 |
| AKAP6 | 0.97 | 0.95 | 0.98 |
| LIN28B | 0.93 | 0.85 | 0.91 |
| DYSF | 1.25 | 0.99 | 0.79 |
| BDH2 | 0.98 | 1 | 1.02 |
| C1orf210 | 1.27 | 0.56 | 0.44 |
| DENND1A | 0.8 | 0.7 | 0.88 |
| PCDH1 | 1.14 | 0.92 | 0.81 |
| ZNF132 | 1.06 | 0.38 | 0.36 |
| TRMT10C | 0.93 | 0.94 | 1.01 |
| ENPP5 | 0.95 | 0.74 | 0.78 |
| KRTAP10-2 | 0.87 | 0.7 | 0.8 |
| ZNF200 | 1.02 | 1.01 | 0.99 |
| CD274 | 1.14 | 0.5 | 0.44 |
| TNIP3 | 0.9 | 0.63 | 0.7 |
| KCNJ14 | 1.21 | 0.92 | 0.76 |
| FILIP1 | 0.88 | 0.86 | 0.98 |
| MCCC2 | 1.07 | 0.87 | 0.81 |
| ANP32B | 1.11 | 1.02 | 0.92 |
| PSMB10 | 1.44 | 0.56 | 0.39 |
| EDC4 | 0.7 | 0.5 | 0.71 |
| CUX2 | 0.89 | 0.31 | 0.35 |
| MID1IP1 | 1 | 0.66 | 0.66 |

2 of these entries, reformatted:
gene knocked down	CDH1-null / parental viability ratio	CDH1-null viability vs mock (fraction of mock)	parental viability vs mock (fraction of mock)
KRTAP10-2	0.87	0.7	0.8
ZNF200	1.02	1.01	0.99
